Earlier results on 1 compound are cited in US6869615B2, “Pharmaceutical formulations containing a non-steroidal antiinflammatory drug and a proton pump inhibitor” (Andrx Labs LLC, priority 2000, dated 2005).

The conditions of the data set: water solutions at pH-values less than three.

On to `COc1ccc2[nH]c([S+]([O-])Cc3ncc(C)c(OC)c3C)nc2c1` (stereo not shown) [omeprazole], for which the half-life of degradation entry was “shorter than ten minutes”.
